PubChem BioAssay AID1259276 – Sanger Institute, 2017

Aim: 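Find kinases whose silencing cuts viability alone or combined with BYL719, cetuximab or trametinib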 (primary screen)
Cells: human C2BBe1 colorectal cancer cells
Knock-down reagent: siRNA pool against human genes
Conditions: DMSO vehicle, or one anchor drug: BYL719 at 1 µM, cetuximab at 5 µg/ml, or trametinib at 10 nM; exposure length not stated
Measured: 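Viability after knock-down relative to non-targeting siRNA controls, averaged across replicates, given as ratio and control-derived robust z-score, with per-drug synergy scores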
Reading the numbers: viability robust z-score, siRNA alone and viability vs control, siRNA alone: higher = more viable cells after knock-down; synergy score with BYL719: higher = stronger combined killing with BYL719; synergy score with cetuximab: higher = stronger combined killing with cetuximab; synergy score with trametinib: higher = stronger combined killing with trametinib
Rule for the call: 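Called essential when knock-down alone gives a viability robust z-score below -3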
Meaning of the calls: active = essential (siRNA alone); inactive = no change (siRNA alone)
In all, the deposit lists 794 reagents; below is an unselected part. Of all reagents, 24 (3%) are marked active. 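Calls come only from the siRNA-alone arm; drug synergy scores do not affect them.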 Viability is capped at 1. The record does not give: the amount of reagent, the time to read-out.

The opening 5 records, ahead of the listing:
no.	Gene	viability robust z-score, siRNA alone	viability vs control, siRNA alone	synergy score with BYL719	synergy score with cetuximab	synergy score with trametinib	activity call
1	PRKAR1B (protein kinase cAMP-dependent type I regulatory subunit beta)	0.472	1	0.115	0.239	-0.0667	inactive
2	PFKFB3 (6-phosphofructo-2-kinase/fructose-2,6-biphosphatase 3)	-0.0696	0.966	0.23	0.159	-0.0986	inactive
3	WT1 (WT1 transcription factor)	0.472	1	-0.0805	0.147	-0.0667	inactive
4	AURKC (aurora kinase C)	0.472	1	0.234	0.181	-0.0667	inactive
5	TJP2 (tight junction protein 2)	0.472	1	-0.128	-0.0115	0.0703	inactive

The list itself, from the start:
no.	Gene	viability robust z-score, siRNA alone	viability vs control, siRNA alone	synergy score with BYL719	synergy score with cetuximab	synergy score with trametinib	activity call
1	PRKAR1B (protein kinase cAMP-dependent type I regulatory subunit beta)	0.472	1	0.115	0.239	-0.0667	inactive
2	PFKFB3 (6-phosphofructo-2-kinase/fructose-2,6-biphosphatase 3)	-0.0696	0.966	0.23	0.159	-0.0986	inactive
3	WT1 (WT1 transcription factor)	0.472	1	-0.0805	0.147	-0.0667	inactive
4	AURKC (aurora kinase C)	0.472	1	0.234	0.181	-0.0667	inactive
5	TJP2 (tight junction protein 2)	0.472	1	-0.128	-0.0115	0.0703	inactive
6	NRK (Nik related kinase)	-1.48	0.877	-0.136	-0.00547	-0.0655	inactive
7	AURKA (aurora kinase A)	-2.18	0.833	-0.197	-0.0647	-0.027	inactive
8	MAP3K8 (mitogen-activated protein kinase kinase kinase 8)	-0.0488	0.967	0.203	0.0245	0.0641	inactive
9	ANKK1 (ankyrin repeat and kinase domain containing 1)	0.472	1	0.179	-0.0115	-0.0667	inactive
10	PRKACG (protein kinase cAMP-activated catalytic subunit gamma)	0.472	1	-0.0945	0.137	-0.0636	inactive
11	MAP2K7 (mitogen-activated protein kinase kinase 7)	-1.01	0.907	-0.0639	0.0105	-0.154	inactive
12	DDR1 (discoidin domain receptor tyrosine kinase 1)	0.472	1	-0.142	-0.0115	-0.0667	inactive
13	RIOK3 (RIO kinase 3)	0.472	1	0.361	0.162	0.117	inactive
14	PFKP (phosphofructokinase, platelet)	-1.89	0.851	-0.0486	0.111	-0.206	inactive
15	TP53 (tumor protein p53)	0.472	1	0.0851	-0.0115	0.00656	inactive
16	ITSN1 (intersectin 1)	0.472	1	-0.0311	-0.0115	-0.0667	inactive
17	MAPK6 (mitogen-activated protein kinase 6)	0.472	1	-0.0528	-0.0115	-0.0667	inactive
18	TBK1 (TANK binding kinase 1)	-0.339	0.949	0.23	0.11	0.163	inactive
19	MED12 (mediator complex subunit 12)	0.472	1	-0.0892	-0.0115	0.0217	inactive
20	SGK1 (serum/glucocorticoid regulated kinase 1)	0.472	1	-0.0818	-0.0115	-0.0667	inactive
21	ADK (adenosine kinase)	-1.63	0.867	-0.0496	-0.143	-0.133	inactive
22	NEK10 (NIMA related kinase 10)	0.472	1	0.172	-0.0115	0.0163	inactive
23	PRP4K (pre-mRNA processing factor kinase PRP4K)	0.472	1	0.182	0.000824	-0.0667	inactive
24	CDKN2C (cyclin dependent kinase inhibitor 2C)	0.472	1	-0.142	-0.0115	-0.0667	inactive
25	PIK3R2 (phosphoinositide-3-kinase regulatory subunit 2)	0.472	1	-0.142	-0.0115	-0.0667	inactive
26	RAD21 (RAD21 cohesin complex component)	0.472	1	0.118	-0.0115	0.0924	inactive
27	CAMK1 (calcium/calmodulin dependent protein kinase I)	0.472	1	-0.0685	0.014	0.203	inactive
28	NR4A2 (nuclear receptor subfamily 4 group A member 2)	0.472	1	-0.0611	0.113	0.112	inactive
29	HIPK3 (homeodomain interacting protein kinase 3)	-0.937	0.911	0.0499	0.118	-0.15	inactive
30	FLT3 (fms related receptor tyrosine kinase 3)	0.472	1	0.155	-0.0115	0.105	inactive
31	STK40 (serine/threonine kinase 40)	0.472	1	-0.0844	0.071	-0.0667	inactive
32	ADPGK (ADP dependent glucokinase)	0.472	1	0.27	-0.0115	0.0907	inactive
33	NME7 (NME/NM23 family member 7)	0.472	1	-0.0314	0.0947	-0.0667	inactive
34	STK36 (serine/threonine kinase 36)	0.472	1	0.12	-0.00946	-0.0667	inactive
35	CSNK2A1 (casein kinase 2 alpha 1)	0.472	1	-0.142	-0.0115	-0.0424	inactive
36	CDKN1B (cyclin dependent kinase inhibitor 1B)	-0.778	0.921	-0.0883	-0.0893	-0.14	inactive
37	MAPK15 (mitogen-activated protein kinase 15)	0.472	1	-0.142	-0.0115	-0.0667	inactive
38	SPHK1 (sphingosine kinase 1)	-1.58	0.871	0.0348	-0.0826	-0.129	inactive
39	PIK3R3 (phosphoinositide-3-kinase regulatory subunit 3)	0.472	1	-0.142	-0.0115	0.154	inactive
40	AK1 (adenylate kinase 1)	0.472	1	0.121	-0.0115	-0.0667	inactive
41	SCYL1 (SCY1 like pseudokinase 1)	0.472	1	-0.142	-0.0115	-0.0667	inactive
42	DAPK2 (death associated protein kinase 2)	0.472	1	-0.00355	-0.0115	-0.0667	inactive
43	TAB1 (TGF-beta activated kinase 1 (MAP3K7) binding protein 1)	0.472	1	-0.142	0.0515	-0.0667	inactive
44	CDC7 (cell division cycle 7)	-2.28	0.826	-0.24	0.02	-0.156	inactive
45	CILK1 (ciliogenesis associated kinase 1)	0.472	1	0.215	0.0925	-0.0667	inactive
46	GUCY2EP (guanylate cyclase 2E, pseudogene)	0.472	1	0.188	0.0546	-0.0667	inactive
47	DCLK1 (doublecortin like kinase 1)	0.472	1	-0.142	0.26	-0.0667	inactive
48	EIF2AK4 (eukaryotic translation initiation factor 2 alpha kinase 4)	0.472	1	-0.0281	-0.0115	-0.0667	inactive
49	CAMKK1 (calcium/calmodulin dependent protein kinase kinase 1)	0.472	1	-0.079	0.165	-0.0647	inactive
50	DGKQ (diacylglycerol kinase theta)	0.472	1	-0.14	0.0114	-0.038	inactive
